No constants are given. Whether binding was seen depends on the method and setting. Some entries that bind do so weakly or less than the wild type.
Target: GSK3β (purified, Signal Chem) (UniProt P49841)
Assay: co-IP; purified GSK3β (3.7 pmol) and NCYM (3.7 pmol) mixed in ice-cold PBS, 4°C 2 h, without or with DNA aptamer No.1 (1 or 5 eq); precipitated with anti-GSK3β on protein G Dynabeads; detected by Abby capillary immunoassay; both purified

Amino acid sequences for entries named in this document (tags omitted).
UniProt P49841: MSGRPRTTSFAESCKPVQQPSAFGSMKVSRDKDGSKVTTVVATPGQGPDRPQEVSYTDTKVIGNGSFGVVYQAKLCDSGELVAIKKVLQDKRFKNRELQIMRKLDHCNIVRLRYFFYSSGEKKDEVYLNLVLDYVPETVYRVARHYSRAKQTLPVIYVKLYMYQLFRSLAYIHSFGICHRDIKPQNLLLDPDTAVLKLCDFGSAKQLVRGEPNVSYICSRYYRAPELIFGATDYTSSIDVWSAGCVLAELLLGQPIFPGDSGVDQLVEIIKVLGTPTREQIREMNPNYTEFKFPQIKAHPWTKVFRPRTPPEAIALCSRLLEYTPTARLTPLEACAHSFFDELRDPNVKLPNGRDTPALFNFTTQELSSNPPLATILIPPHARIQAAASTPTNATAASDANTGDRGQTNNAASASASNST

binding: binds
B1: NCYM (purified, as used for immunoprecipitation) (protein, UniProt P40205 1-109)
chain: MQHPPCEPGNCLSLKEKKITEGSGGVCWGGETDASNPAPALTACCAAEREANVEQGLAGRLLLCNYERRVVRRCKIAGRGRAPLGTRPLDVSSFKLKEEGRPPCLKINK
